Reference: publication PMC8510090, “The DNA Recognition Motif of GapR Has an Intrinsic DNA Binding Preference towards AT-rich DNA” (Molecules, 2021)

How the values were obtained:
[1] = target: T1, GapRΔC17 K34A (Caulobacter crescentus) (UniProt B8H4R9); assay: MST; conditions: MST: 20 mM PBS, 150 mM NaCl, 0.02% n-dodecyl-β-D-maltoside, pH 7, 20 nM labeled dimer (labeling at room temperature); recombinant protein; residues 1-72; protein details: C-terminal His6
T1 sequence (looked up): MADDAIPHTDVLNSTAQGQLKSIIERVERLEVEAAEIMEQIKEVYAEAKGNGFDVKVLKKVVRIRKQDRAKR

[2] = target: T2, GapRΔC17 K42A (Caulobacter crescentus) (UniProt B8H4R9); assay: MST; conditions: MST: 20 mM PBS, 150 mM NaCl, 0.02% n-dodecyl-β-D-maltoside, pH 7, 20 nM labeled dimer (labeling at room temperature); recombinant protein; residues 1-72; protein details: C-terminal His6
T2 sequence (looked up): T1 sequence (looked up) with A34K, K42A

[3] = target: T3, GapRΔC17 K49A (Caulobacter crescentus) (UniProt B8H4R9); assay: MST; conditions: MST: 20 mM PBS, 150 mM NaCl, 0.02% n-dodecyl-β-D-maltoside, pH 7, 20 nM labeled dimer (labeling at room temperature); recombinant protein; residues 1-72; protein details: C-terminal His6
T3 sequence (looked up): T1 sequence (looked up) with A34K, K49A

[4] = target: T4, GapRΔC17 K56A (Caulobacter crescentus) (UniProt B8H4R9); assay: MST; conditions: MST: 20 mM PBS, 150 mM NaCl, 0.02% n-dodecyl-β-D-maltoside, pH 7, 20 nM labeled dimer (labeling at room temperature); recombinant protein; residues 1-72; protein details: C-terminal His6
T4 sequence (looked up): T1 sequence (looked up) with A34K, K56A

[5] = target: T5, GapRΔC17 K59A (Caulobacter crescentus) (UniProt B8H4R9); assay: MST; conditions: MST: 20 mM PBS, 150 mM NaCl, 0.02% n-dodecyl-β-D-maltoside, pH 7, 20 nM labeled dimer (labeling at room temperature); recombinant protein; residues 1-72; protein details: C-terminal His6
T5 sequence (looked up): T1 sequence (looked up) with A34K, K59A

[6] = target: T6, GapRΔC17 K66A (Caulobacter crescentus) (UniProt B8H4R9); assay: MST; conditions: MST: 20 mM PBS, 150 mM NaCl, 0.02% n-dodecyl-β-D-maltoside, pH 7, 20 nM labeled dimer (labeling at room temperature); recombinant protein; residues 1-72; protein details: C-terminal His6
T6 sequence (looked up): T1 sequence (looked up) with A34K, K66A

[7] = target: T7, GapRΔC17 R63A (Caulobacter crescentus) (UniProt B8H4R9); assay: MST; conditions: MST: 20 mM PBS, 150 mM NaCl, 0.02% n-dodecyl-β-D-maltoside, pH 7, 20 nM labeled dimer (labeling at room temperature); recombinant protein; residues 1-72; protein details: C-terminal His6
T7 sequence (looked up): T1 sequence (looked up) with A34K, R63A

[8] = target: T8, GapRΔC17 (Caulobacter crescentus) (UniProt B8H4R9); assay: NMR titration (1H-15N HSQC); conditions: recombinant protein; residues 1-72; protein details: C-terminal His6
T8 sequence (looked up): T1 sequence (looked up) with A34K

Measured: binding result

CGCAAAAAAGCG (double strand) [6A DNA]
binds more weakly: [1] | [2] | [3] | [4] | [5] | [6] | [7]

CTACGCGCGTAG (double strand) [3CG DNA]
binds more weakly: [8]

Residue numbers refer to the chain shown, from its start. Weaker means in comparison with the reference protein, sequence or condition of that experiment. Where a protein sequence is shown, tags need not be part of it.
